The target in one assay is T1, myc-TRIC-A (mouse) (UniProt Q3TMP8).
T1 sequence: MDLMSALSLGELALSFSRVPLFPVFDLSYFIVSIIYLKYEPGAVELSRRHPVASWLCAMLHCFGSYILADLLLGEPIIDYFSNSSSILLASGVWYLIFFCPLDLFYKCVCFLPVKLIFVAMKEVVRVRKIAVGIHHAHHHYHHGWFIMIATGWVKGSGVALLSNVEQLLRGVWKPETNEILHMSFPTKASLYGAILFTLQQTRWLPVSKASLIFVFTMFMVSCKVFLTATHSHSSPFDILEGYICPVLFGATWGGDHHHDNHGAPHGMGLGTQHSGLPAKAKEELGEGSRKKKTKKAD
Kind of assay: co-IP; Pierce anti-c-myc magnetic beads; lysates (Pierce IP lysis buffer) of transfected HEK293 cells, basal or ER-depleted (100 uM CCh + 30 uM BHQ); western blot.

The chains behind the UniProt entries cited, without tags or fusion partners. Residues count along the entry.
UniProt Q13586, residues 23-685: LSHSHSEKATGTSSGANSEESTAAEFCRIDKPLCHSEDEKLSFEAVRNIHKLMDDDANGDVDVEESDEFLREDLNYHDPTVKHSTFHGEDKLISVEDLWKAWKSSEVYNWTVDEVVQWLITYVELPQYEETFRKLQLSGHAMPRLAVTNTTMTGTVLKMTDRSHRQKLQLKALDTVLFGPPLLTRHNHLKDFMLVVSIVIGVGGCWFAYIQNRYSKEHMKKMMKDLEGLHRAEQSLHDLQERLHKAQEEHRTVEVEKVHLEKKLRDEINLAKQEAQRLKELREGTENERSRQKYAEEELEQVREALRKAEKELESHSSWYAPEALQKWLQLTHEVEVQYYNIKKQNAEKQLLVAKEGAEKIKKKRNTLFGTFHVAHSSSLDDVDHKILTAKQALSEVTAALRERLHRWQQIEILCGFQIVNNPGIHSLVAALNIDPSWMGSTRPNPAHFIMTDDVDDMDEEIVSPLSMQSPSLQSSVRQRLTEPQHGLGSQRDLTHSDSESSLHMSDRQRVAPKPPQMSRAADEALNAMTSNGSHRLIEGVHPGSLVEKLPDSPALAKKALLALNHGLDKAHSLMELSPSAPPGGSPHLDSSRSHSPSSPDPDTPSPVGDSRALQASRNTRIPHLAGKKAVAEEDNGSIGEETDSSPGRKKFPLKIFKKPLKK
UniProt P70302, residues 23-685: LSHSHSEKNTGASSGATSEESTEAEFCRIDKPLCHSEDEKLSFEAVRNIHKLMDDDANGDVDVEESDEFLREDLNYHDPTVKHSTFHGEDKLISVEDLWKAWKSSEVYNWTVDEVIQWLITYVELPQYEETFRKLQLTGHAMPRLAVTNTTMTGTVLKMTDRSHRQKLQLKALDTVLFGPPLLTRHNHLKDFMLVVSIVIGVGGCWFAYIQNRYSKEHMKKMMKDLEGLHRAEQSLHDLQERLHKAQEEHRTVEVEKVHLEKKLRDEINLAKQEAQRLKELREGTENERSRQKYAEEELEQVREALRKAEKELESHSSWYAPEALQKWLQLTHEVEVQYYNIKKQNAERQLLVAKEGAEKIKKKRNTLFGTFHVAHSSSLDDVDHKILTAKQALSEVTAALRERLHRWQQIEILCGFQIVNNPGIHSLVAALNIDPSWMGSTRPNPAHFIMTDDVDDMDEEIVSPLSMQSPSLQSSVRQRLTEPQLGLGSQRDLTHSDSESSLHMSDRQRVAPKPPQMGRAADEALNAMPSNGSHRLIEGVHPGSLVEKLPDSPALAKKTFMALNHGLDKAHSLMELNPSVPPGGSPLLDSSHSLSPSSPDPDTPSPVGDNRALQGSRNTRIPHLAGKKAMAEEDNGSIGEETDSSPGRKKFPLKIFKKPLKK

In the next assay the target is STIM1-myc (UniProt Q13586). Described as above.
Assay [1] concerns the target endogenous STIM1 (murine skeletal muscle) (mouse (endogenous in skeletal muscle)) (UniProt P70302). Description: co-IP; STIM1 antibody (BD Biosciences) and Protein A agarose, overnight at 4 C; lysates of murine hind limb skeletal muscle (1% Nonidet P-40, 50 mM Tris-HCl, 150 mM NaCl, 2 mM EDTA, 5% glycerol, pH 8), basal or SR-depleted (30 mM caffeine + 30 uM BHQ); western blot. (Immunoblotting shows a protein as a band on a membrane.)

The target of a further assay is STIM1-YFP (UniProt Q13586). Kind of assay: FRET or BRET; normalized FRET (N_FRET, pixFRET) from epifluorescence images of HEK293 cells transfected with CFP/YFP fusion constructs; basal, or ER-depleted with 100 uM CCh + 30 uM BHQ (STIM1-YFP with Orai1-CFP, with or without coexpressed TRIC-A). (Bioluminescence resonance energy transfer reports proximity on the nanometre scale.)

Results are given in words; binding and its absence hold for the method and conditions named. In cells and extracts the contact can be indirect. Some results given as binding are weak or reduced against the parent protein; the word gives no strength. For some assays here: Sequences can lack the tags named with a protein.

Turning to “endogenous STIM1 (HEK293) (from UniProt Q13586 23-685)”, in the assay with myc-TRIC-A (mouse), the binding entry was “binds”.

B1: endogenous TRIC-B (protein, UniProt Q9NVV0 1-291)
chain: MDSPWDELALAFSRTSMFPFFDIAHYLVSVMAVKRQPGAAALAWKNPISSWFTAMLHCFGGGILSCLLLAEPPLKFLANHTNILLASSIWYITFFCPHDLVSQGYSYLPVQLLASGMKEVTRTWKIVGGVTHANSYYKNGWIVMIAIGWARGAGGTIITNFERLVKGDWKPEGDEWLKMSYPAKVTLLGSVIFTFQHTQHLAISKHNLMFLYTIFIVATKITMMTTQTSTMTFAPFEDTLSWMLFGWQQPFSSCEKKSEAKSPSNGVGSLASKPVDVASDNVKKKHTKKNE
B1: the binding entry with STIM1-myc is “binds”.

B2: TRIC-A-mCherry (protein, UniProt Q3TMP8 1-298)
chain: MDLMSALSLGELALSFSRVPLFPVFDLSYFIVSIIYLKYEPGAVELSRRHPVASWLCAMLHCFGSYILADLLLGEPIIDYFSNSSSILLASGVWYLIFFCPLDLFYKCVCFLPVKLIFVAMKEVVRVRKIAVGIHHAHHHYHHGWFIMIATGWVKGSGVALLSNVEQLLRGVWKPETNEILHMSFPTKASLYGAILFTLQQTRWLPVSKASLIFVFTMFMVSCKVFLTATHSHSSPFDILEGYICPVLFGATWGGDHHHDNHGAPHGMGLGTQHSGLPAKAKEELGEGSRKKKTKKAD
As to B2, in the assay with STIM1-myc, the binding entry is listed as “binds”.

B3: endogenous TRIC-A (murine skeletal muscle) (protein, UniProt Q3TMP8 1-298)
chain: MDLMSALSLGELALSFSRVPLFPVFDLSYFIVSIIYLKYEPGAVELSRRHPVASWLCAMLHCFGSYILADLLLGEPIIDYFSNSSSILLASGVWYLIFFCPLDLFYKCVCFLPVKLIFVAMKEVVRVRKIAVGIHHAHHHYHHGWFIMIATGWVKGSGVALLSNVEQLLRGVWKPETNEILHMSFPTKASLYGAILFTLQQTRWLPVSKASLIFVFTMFMVSCKVFLTATHSHSSPFDILEGYICPVLFGATWGGDHHHDNHGAPHGMGLGTQHSGLPAKAKEELGEGSRKKKTKKAD
In the case of B3, in assay [1], the binding result is reported as “binds”.

B4: TRIC-A-CFP (protein, UniProt Q3TMP8 1-298)
chain: MDLMSALSLGELALSFSRVPLFPVFDLSYFIVSIIYLKYEPGAVELSRRHPVASWLCAMLHCFGSYILADLLLGEPIIDYFSNSSSILLASGVWYLIFFCPLDLFYKCVCFLPVKLIFVAMKEVVRVRKIAVGIHHAHHHYHHGWFIMIATGWVKGSGVALLSNVEQLLRGVWKPETNEILHMSFPTKASLYGAILFTLQQTRWLPVSKASLIFVFTMFMVSCKVFLTATHSHSSPFDILEGYICPVLFGATWGGDHHHDNHGAPHGMGLGTQHSGLPAKAKEELGEGSRKKKTKKAD
B4: in the assay with STIM1-YFP, the binding entry was “binds”.

These data come from paper PMC7202670.
